# Measurements: PubChem BioAssay AID445 (National Center for Advancing Translational Sciences (NCATS), 2006)
# This is one part of the list. These are further read-outs of the screen, such as a control signal, another cell line or another target. No call is given for them. The list favours compounds with an active or inconclusive main result. Potencies come from curve fits of mixed quality, noted in brackets.
# Test: IkB Signaling
# Conditions: ABC-DLBCL IkBa-CBG/CBR dual luciferase ratio (green luciferase fused to IkBa over red control in OCI-Ly3 lymphoma cells), 4 h
# Summary of the method: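 Curves were fitted separately to fusion (green), unfused (red) and ratio luminescence, then classed by r2, magnitude and activity. Cells: OCI-Ly3, 4 h compound plus doxycycline at 37C; 10 uM MG-132 defined full response.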
# [1] = measured here: control luc red channel unless noted
smiles,measurement,setting,value
COc1ccc(Br)cc1CNC(=O)CSc1n[nH]c(-c2ccccc2)n1,AC50,[1],"31.6 µM [falling, single point]"
Cc1nn(Cc2ccccc2)c(Cl)c1C(=O)OCc1nnc(-c2ccc(Cl)cc2)o1,AC50,[1],"31.6 µM [falling, partial curve]"
Cc1ccc2[nH]c3c(=O)n(CC(=O)NCCCN4CCN(c5ccc(F)cc5)CC4)ncc3c2c1,AC50,[1],"6.31 µM [rising, single point]"
Cc1cccc(C)c1NC(=O)c1nc(SC(C)C)ncc1Cl,AC50,[1],"10 µM [falling, partial curve]"
COCCCNC(=O)C1CCN(C(=O)c2ccc(-n3ccc4ccccc43)s2)CC1,AC50,measured here: IkB-luc green channel,"1.58 µM [rising, partial curve]"
same,AC50,measured here: control luc red channel,"25.1 µM [falling, partial curve]"
Cc1cc(C)cc(N(CC(=O)Nc2ccc(C)cc2Cl)S(=O)(=O)c2c(C)[nH]c(=O)[nH]c2=O)c1,AC50,[1],"20 µM [falling, single point]"
Cc1ccccc1CNC(=O)Cc1csc2ccccc12,AC50,[1],"12.6 µM [falling, single point]"
CCN(CC)C(=O)c1sc2c(c1C)c(=O)n(Cc1ccccc1)c(=O)n2CC(=O)Nc1ccc(OC)cc1,AC50,[1],"5.01 µM [rising, partial curve]"
O=c1c(NCCc2ccc(Cl)cc2)nccn1-c1ccccc1,AC50,[1],"0.501 µM [rising, full curve]"
COc1ccc(OC)c(CCNC(=O)c2cc3cccc4c3n2CCS4)c1,AC50,[1],"20 µM [falling, single point]"
Cc1cc2n(n1)CCCN2C(=O)Nc1ccc(C)c(Cl)c1,AC50,[1],"10 µM [rising, partial curve]"
Cc1ccc(C)c(N2CCN(S(=O)(=O)c3ccc(F)c(C(=O)Nc4ccc(Cl)cc4Cl)c3)CC2)c1,AC50,[1],"7.94 µM [falling, partial curve]"
CCN(Cc1ccccc1)C(=O)CCS(=O)(=O)c1cc(Br)cc2c1N(C(=O)C1CC1)CC2,AC50,[1],"31.6 µM [falling, single point]"
CN(c1ccccc1)S(=O)(=O)c1nnc(NC(=O)c2cccs2)s1,AC50,[1],"0.316 µM [rising, partial curve]"
CCOC(=O)c1c(C)oc2ccc(N(C(=O)c3ccncc3)S(=O)(=O)c3ccc(F)cc3)cc12,AC50,[1],"31.6 µM [falling, single point]"
COc1cccc(NC2=CC(c3ccc(C(C)C)cc3)N(c3cccc(OC)c3)C2=O)c1 (stereo not given),AC50,[1],"3.98 µM [falling, full curve]"
COc1ccc(C)cc1NS(=O)(=O)c1cc(Br)cc2c1N(C(C)=O)C(C)C2 (stereo not given),AC50,[1],"20 µM [falling, partial curve]"
COc1ccc(/C=N/n2c(SC)nnc2-c2ccccc2)cc1C,AC50,[1],"15.8 µM [falling, partial curve]"
Cc1c(C(=O)N(Cc2cccc(Cl)c2)Cc2ccco2)oc2ccccc12,AC50,[1],"20 µM [falling, partial curve]"
O=C(CN1CCN(c2nc(-c3ccc(Cl)cc3)cs2)CC1)NCc1ccco1,AC50,[1],"31.6 µM [falling, partial curve]"
COc1cccc(CNC(=O)CSc2nnc(C)c3c(C)n(-c4ccccc4)nc23)c1,AC50,[1],"12.6 µM [falling, partial curve]"
Cc1ccccc1Nc1c(-c2ccc(O)cc2)nc2c(C)cccn12,AC50,[1],"20 µM [falling, partial curve]"
CCC(C(=O)Nc1ccc(F)cc1F)n1nc(-c2ccccc2)c2c(c1=O)CCCC2 (stereo not given),AC50,[1],"20 µM [falling, partial curve]"
COc1ccc(Cl)cc1S(=O)(=O)N1CCC(c2ccncc2)CC1,AC50,[1],"20 µM [falling, partial curve, poor fit]"
CC(=O)N1c2ccccc2CC1C(=O)N1CCN(c2cc(Cl)ccc2C)CC1 (stereo not given),AC50,[1],"25.1 µM [falling, partial curve]"
O=C(c1cccn1-c1nnc(N2CCCC2)s1)N1CCN(c2ccc(F)cc2)CC1,AC50,[1],"15.8 µM [falling, partial curve]"
Cc1cccc(OCC(=O)NCc2ccc3c(c2)CCN3C(=O)c2ccc(Cl)cc2)c1,AC50,[1],"1.58 µM [falling, partial curve, poor fit]"
Cc1ccc(-c2noc(C3CCCN(C(=O)c4ccc(F)cc4F)C3)n2)cc1 (stereo not given),AC50,[1],"12.6 µM [falling, partial curve]"
COc1ccc(NC(=O)COc2ccccc2C#N)c(S(=O)(=O)N2CCCCC2)c1,AC50,[1],"12.6 µM [falling, partial curve]"
CCOc1ccc(NC(=O)c2c(NC(=O)c3ccncc3)sc3c2CCC(C(C)(C)C)C3)cc1 (stereo not given),AC50,[1],"10 µM [falling, partial curve]"
CC(=O)N1CCCc2cc(S(=O)(=O)N3CCCC(C(=O)N4CCN(c5ccccc5F)CC4)C3)ccc21 (stereo not given),AC50,[1],"25.1 µM [falling, partial curve]"
Cc1ccc2c(c1)-c1c(cnn1CC(=O)N1CCN(c3cccc(C(F)(F)F)c3)CC1)CO2,AC50,[1],"0.316 µM [falling, partial curve]"
COc1ccc(NC(=O)c2ccc(=O)oc2)cc1,AC50,[1],"12.6 µM [falling, partial curve]"
O=C(Nc1ccc(N2CCN(C(=O)c3ccccc3)CC2)cc1)c1cc2ccccc2o1,AC50,[1],"3.98 µM [falling, partial curve] [measured here: IkB-luc green channel]"
Cc1nc(SCC(=O)OC(C)(C)C)c2c3c(sc2n1)CCCC3,AC50,[1],"31.6 µM [falling, single point]"
COc1ccc(-n2c(SCC(=O)NCc3ccccc3)nc3ccsc3c2=O)cc1,AC50,[1],"1 µM [rising, full curve, poor fit]"
COC(=O)c1sccc1S(=O)(=O)N(CC(=O)Nc1cc(C)cc(C)c1)c1ccc(Cl)cc1,AC50,[1],"10 µM [falling, partial curve]"
O=C(c1ccc(C#Cc2ccccc2)o1)N1CCN(c2ccccn2)CC1,AC50,[1],"31.6 µM [falling, partial curve]"
COc1ccc(NC(=O)c2nn(C)c3c2CSc2ccc(C)cc2-3)cc1OC,AC50,[1],"12.6 µM [falling, partial curve]"

# 2 entries picked at random from the list so far, as already listed:
smiles,measurement,setting,value
COc1ccc(Cl)cc1S(=O)(=O)N1CCC(c2ccncc2)CC1,AC50,[1],"20 µM [falling, partial curve, poor fit]"
COc1ccc(NC(=O)c2ccc(=O)oc2)cc1,AC50,[1],"12.6 µM [falling, partial curve]"
